PubChem BioAssay AID1224830 | NIAID – 2016
Here is a random part of about 18,000 deposited reagents. About 2,900 of them (16%) count as active. 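Calls are made per well; low scores hint the gene aids the LPS response, high scores that it dampens it.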 Repeated entries: four replicate wells of each siRNA pool. Reagent sequences are not shown.

Purpose: 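Regulators of TLR4 signalling towards TNF-alpha in macrophage-like cells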 (primary screen)
System: human THP-1 monocytic leukaemia cells, TNF dual-luciferase reporter clone, PMA-differentiated to macrophage-like cells
Reagent: siRNA pool against human genes, 50 nM
Duration: LPS for 4 h, given about 3 days after siRNA transfection
Challenge: bacterial LPS (TLR4 ligand), 10 ng/ml
Read-out: 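Ratio of firefly to renilla light, scaled to the plate median and expressed as a robust z-score per replicate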
Reading the numbers: TNF reporter robust z-score: higher = stronger TNF reporter response to LPS
Active means: 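Each well counts as active if its z-score is over 2.8 or under -1.5; controls are left without a call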

With GINS4, what was measured?
TNF reporter robust z-score: 0.56; Call: inactive

What is on record for GINS4?
TNF reporter robust z-score: 0.1; Call: inactive

Which result is listed for GINS4?
TNF reporter robust z-score: -0.06; Call: inactive

For GINS4, what does the deposit list?
TNF reporter robust z-score: 1.33; Call: inactive

With SAMD7, what was measured?
TNF reporter robust z-score: -1.3; Call: inactive

For SAMD7, what was measured?
TNF reporter robust z-score: -1.13; Call: inactive

With SAMD7, how do the results read?
TNF reporter robust z-score: -1.01; Call: inactive

Which result is listed for SAMD7?
TNF reporter robust z-score: -0.73; Call: inactive

Which result is listed for ANXA8?
TNF reporter robust z-score: 1.2; Call: inactive

What did the screen give for ANXA8?
TNF reporter robust z-score: 0.34; Call: inactive

For ANXA8, how do the results read?
TNF reporter robust z-score: 0.19; Call: inactive

What is on record for ANXA8?
TNF reporter robust z-score: 0.32; Call: inactive

With SRSF7, what does the deposit list?
TNF reporter robust z-score: -0.11; Call: inactive

What did the screen give for SRSF7?
TNF reporter robust z-score: 1.2; Call: inactive

Which result is listed for SRSF7?
TNF reporter robust z-score: 0.53; Call: inactive

How did the screen score SRSF7?
TNF reporter robust z-score: 2.09; Call: inactive

For GBF1, how do the results read?
TNF reporter robust z-score: -0.54; Call: inactive

How did the screen score GBF1?
TNF reporter robust z-score: -1.42; Call: inactive

What is on record for GBF1?
TNF reporter robust z-score: -0.87; Call: inactive

With GBF1, what was measured?
TNF reporter robust z-score: -0.58; Call: inactive

For CCN6, how do the results read?
TNF reporter robust z-score: 0.16; Call: inactive

With CCN6, how do the results read?
TNF reporter robust z-score: -0.02; Call: inactive

What did the screen give for CCN6?
TNF reporter robust z-score: 0.51; Call: inactive

Which result is listed for CCN6?
TNF reporter robust z-score: 0.82; Call: inactive

How did the screen score POP1?
TNF reporter robust z-score: -1.32; Call: inactive

For POP1, how do the results read?
TNF reporter robust z-score: -0.49; Call: inactive

What is on record for POP1?
TNF reporter robust z-score: 0.55; Call: inactive

What did the screen give for POP1?
TNF reporter robust z-score: 0.95; Call: inactive

For S100A12, how do the results read?
TNF reporter robust z-score: -0.63; Call: inactive

Which result is listed for S100A12?
TNF reporter robust z-score: 0.31; Call: inactive

How did the screen score S100A12?
TNF reporter robust z-score: -0.16; Call: inactive

For S100A12, what was measured?
TNF reporter robust z-score: -0.25; Call: inactive

Which result is listed for RNF169?
TNF reporter robust z-score: 0.13; Call: inactive

For RNF169, what does the deposit list?
TNF reporter robust z-score: -0.89; Call: inactive

What did the screen give for RNF169?
TNF reporter robust z-score: 0.07; Call: inactive

With RNF169, how do the results read?
TNF reporter robust z-score: -0.97; Call: inactive

For GAGE2E, what does the deposit list?
TNF reporter robust z-score: 1.99; Call: inactive

With GAGE2E, what does the deposit list?
TNF reporter robust z-score: 2.42; Call: inactive

For GAGE2E, how do the results read?
TNF reporter robust z-score: 1.44; Call: inactive

For GAGE2E, what was measured?
TNF reporter robust z-score: 1.01; Call: inactive

For OSBPL2, how do the results read?
TNF reporter robust z-score: 0.2; Call: inactive

How did the screen score OSBPL2?
TNF reporter robust z-score: 0.81; Call: inactive

With OSBPL2, how do the results read?
TNF reporter robust z-score: 1.76; Call: inactive

With OSBPL2, what does the deposit list?
TNF reporter robust z-score: 1.4; Call: inactive

What is on record for PSMA5?
TNF reporter robust z-score: -1.64; Call: active

How did the screen score PSMA5?
TNF reporter robust z-score: -0.82; Call: inactive

Which result is listed for PSMA5?
TNF reporter robust z-score: -1.39; Call: inactive

How did the screen score PSMA5?
TNF reporter robust z-score: -1.05; Call: inactive
